The other results are listed elsewhere or left out.
Target: T1, OsSMF1 (Oryza sativa, UniProt Q6ZLB0 1-436)
T1 sequence: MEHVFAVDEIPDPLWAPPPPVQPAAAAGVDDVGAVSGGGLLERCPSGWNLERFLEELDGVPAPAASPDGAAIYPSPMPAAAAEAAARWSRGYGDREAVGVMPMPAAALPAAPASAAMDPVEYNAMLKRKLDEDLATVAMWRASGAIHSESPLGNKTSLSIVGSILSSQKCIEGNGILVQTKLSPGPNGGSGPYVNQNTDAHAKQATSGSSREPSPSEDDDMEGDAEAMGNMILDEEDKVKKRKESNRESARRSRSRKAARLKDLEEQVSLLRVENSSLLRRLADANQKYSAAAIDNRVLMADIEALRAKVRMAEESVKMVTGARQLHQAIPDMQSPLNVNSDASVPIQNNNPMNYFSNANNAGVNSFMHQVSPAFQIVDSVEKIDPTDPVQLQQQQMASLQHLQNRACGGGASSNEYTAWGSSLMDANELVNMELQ
Assay: protein-binding microarray (RPBM); PBS, 2% BSA, 51.3 ng/ul salmon testes DNA, 50 uM zinc acetate, 200 nM TF, 25 C, 1 h; high values mean tight binding
Settings: protein: recombinant; tags: N-terminal polyhistidine and DsRed monomer fusion (pET32a); chain copies: 2; label: CyDye5-dUTP incorporated in the synthesized complementary strand; 3' TTTTT single-stranded linker to array surface; dsDNA, one strand shown
Outline: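 Transcription factors, each fused N-terminally to a polyhistidine tag and DsRed, were expressed in E. coli BL21-CodonPlus and purified on Ni–NTA. A custom Agilent array was made double-stranded by primer extension with Cy5-dUTP and blocked with 2% BSA. It was incubated with 200 nM protein in PBS, 2% BSA, salmon testes DNA and 50 µM zinc acetate at 25 °C for 1 h, then washed. The binding signal is per-feature fluorescence intensity (arbitrary units) read on an Axon 4000B scanner.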

Row | Sequence | binding signal
1 | CCGCCACGAGAGAGCTCTCTCCCACTTCTTCCTTCCTGCGCGGAGTCACCTAGTGCAG | 31700 fluorescence intensity (a.u.)
2 | GAGGACGGCCTCGGCGGAGAGGATGGAGGTGACGAGGAGCCGGAGTCACCTAGTGCAG | 3630 fluorescence intensity (a.u.)
3 | TGCAGTTTAGAACGTGACATAACATAGATATTTAATGCTCCGGAGTCACCTAGTGCAG | 4110 fluorescence intensity (a.u.)
4 | CCTCTGCCTCTTGGGGTCGCCGCCACGCCAACTGGAGTCACGGAGTCACCTAGTGCAG | 5090 fluorescence intensity (a.u.)
5 | TCCTCACCGCACGCCACACACTGACTCCATACGCACAAGGCGGAGTCACCTAGTGCAG | 4090 fluorescence intensity (a.u.)
6 | AATTCTTGGAATCTGATGGGATTCCATCCCCGAGTGACAACGGAGTCACCTAGTGCAG | 13500 fluorescence intensity (a.u.)
7 | GAAATTGATGAGTGGGTCCCACGTGTAGTTGAGCCAATCACGGAGTCACCTAGTGCAG | 7970 fluorescence intensity (a.u.)
8 | GCAGTGGCTAAGCTTAAGCTCAGGTATGATGACTCGTTGGCGGAGTCACCTAGTGCAG | 3610 fluorescence intensity (a.u.)
9 | GATCACCATTCTGGCTTTAATGGAAGCCACTTTCATCACCCGGAGTCACCTAGTGCAG | 3460 fluorescence intensity (a.u.)
10 | ATTTTGCAGCCATACATGACACAACACATTCGAGTCTTCGCGGAGTCACCTAGTGCAG | 3820 fluorescence intensity (a.u.)
11 | TCACGCCGGCGAGACGGCGTCACGGTGCCACGGCGACGGCCGGAGTCACCTAGTGCAG | 4780 fluorescence intensity (a.u.)
12 | AATCAACACGGGCCGATGGGCCGATTGTATCGGTACCCGTCGGAGTCACCTAGTGCAG | 3450 fluorescence intensity (a.u.)
13 | CCGCGCCCTCTCCCCTCGCCGCCCTCTCTCACGCATCCCCCGGAGTCACCTAGTGCAG | 4540 fluorescence intensity (a.u.)
14 | GCTGAGTTGCATGAGTAAGACCCCACGCGCACGTCATTTGCGGAGTCACCTAGTGCAG | 9720 fluorescence intensity (a.u.)
15 | CAACAACACAGCTACTACTCGATCCCCAACGTGGTATAAGCGGAGTCACCTAGTGCAG | 3700 fluorescence intensity (a.u.)
16 | CTGTTGTGCTGACGCTCAATACTATTTCTCACTGGAATGTCGGAGTCACCTAGTGCAG | 3370 fluorescence intensity (a.u.)
17 | AAGACAAAATGATCAATAGCAAGGCTTTGTGAAAAGTTAGCGGAGTCACCTAGTGCAG | 12300 fluorescence intensity (a.u.)
18 | GGACGTGATTCAAACTCGCGTGGGTGATCGAAAGTGGACTCGGAGTCACCTAGTGCAG | 4640 fluorescence intensity (a.u.)
19 | CAGCCGGTGGGCCTGCATGACAAGTGGGCCCAGTGACACTCGGAGTCACCTAGTGCAG | 3320 fluorescence intensity (a.u.)
20 | CCCGAGCCCTCGACACCAACCCCGTCAGATGTGAAGCCGACGGAGTCACCTAGTGCAG | 3980 fluorescence intensity (a.u.)
21 | TAGGCCGCCCCTCTTGTGGTCTCTGAGTCACTTGCAATATCGGAGTCACCTAGTGCAG | 5760 fluorescence intensity (a.u.)

Numbers 1 to 4 of the list above:
Row | Sequence | binding signal
1 | CCGCCACGAGAGAGCTCTCTCCCACTTCTTCCTTCCTGCGCGGAGTCACCTAGTGCAG | 31700 fluorescence intensity (a.u.)
2 | GAGGACGGCCTCGGCGGAGAGGATGGAGGTGACGAGGAGCCGGAGTCACCTAGTGCAG | 3630 fluorescence intensity (a.u.)
3 | TGCAGTTTAGAACGTGACATAACATAGATATTTAATGCTCCGGAGTCACCTAGTGCAG | 4110 fluorescence intensity (a.u.)
4 | CCTCTGCCTCTTGGGGTCGCCGCCACGCCAACTGGAGTCACGGAGTCACCTAGTGCAG | 5090 fluorescence intensity (a.u.)

(continued)

Row | Sequence | binding signal
22 | ACAGCCGGTCGAGATGAGGCCTCATCCCCACAAAGTATTTCGGAGTCACCTAGTGCAG | 3530 fluorescence intensity (a.u.)
23 | CACCATTCTCCTCTTGCGATTTCACCACCACCGCCACGGCCGGAGTCACCTAGTGCAG | 3480 fluorescence intensity (a.u.)
24 | CACATGCTATAGTGACGTACCATACGTTGAAACAACCACTCGGAGTCACCTAGTGCAG | 3810 fluorescence intensity (a.u.)
25 | CACCGCAACAGTTTCACTAATCACCAGTCATTACACTCTGCGGAGTCACCTAGTGCAG | 3470 fluorescence intensity (a.u.)
26 | CGGCGAAGTAGCAAGGGTTGAGTCTGCATCATCAACCAATCGGAGTCACCTAGTGCAG | 3370 fluorescence intensity (a.u.)
27 | GCTACATGGTTATCACGCAGACCATTTACATGCACCAACGCGGAGTCACCTAGTGCAG | 4200 fluorescence intensity (a.u.)
28 | AATCCTAACCATTCATTCATTTCCCAATCCCAATTCCATTCGGAGTCACCTAGTGCAG | 23000 fluorescence intensity (a.u.)
29 | AATAGTGTAGTATGTAACTATTATATGAATGAGCTATTAACGGAGTCACCTAGTGCAG | 20900 fluorescence intensity (a.u.)
30 | ACAAGTACTACACGCGAATGTATTTCAATAGAAATTTATCCGGAGTCACCTAGTGCAG | 35600 fluorescence intensity (a.u.)
31 | AGAATATTACTTGCCTTCCACACCCTTAATCACATGCACGCGGAGTCACCTAGTGCAG | 3610 fluorescence intensity (a.u.)
32 | GGGCGGAGCGGGGCGGAGGGAGAGGAGGGAGAGGAGGGAGCGGAGTCACCTAGTGCAG | 4920 fluorescence intensity (a.u.)
33 | ATATATATATATTACATGATGTCGTCAGTCTTGTCAACTGCGGAGTCACCTAGTGCAG | 4260 fluorescence intensity (a.u.)
34 | AGCCCACAACAGCAGAACAACTCACCCGTGCCCTCCACCACGGAGTCACCTAGTGCAG | 3220 fluorescence intensity (a.u.)
35 | GGGCATGTAAAATTTCTTTCTACTGGGATAACTCTTCTTGCGGAGTCACCTAGTGCAG | 3480 fluorescence intensity (a.u.)
36 | GTGCGGACGTGTTGTAAACACCTGTGTTTATACTGTATTTCGGAGTCACCTAGTGCAG | 3660 fluorescence intensity (a.u.)
37 | ATGACTAACGTAATGTAAGTGACCATGCATATATGCATGCCGGAGTCACCTAGTGCAG | 3930 fluorescence intensity (a.u.)
38 | ATTGTTGAATCCAGTCACACCAAGCTTGAGGGCTTTGGATCGGAGTCACCTAGTGCAG | 4640 fluorescence intensity (a.u.)
39 | AAGGTAGTATCAGCCCAAGTCCAGCCTGGCATGATACTGGCGGAGTCACCTAGTGCAG | 3500 fluorescence intensity (a.u.)
40 | CTTACTGTGCAACTGCACAAATTACAATGACTAGTAGTTGCGGAGTCACCTAGTGCAG | 3670 fluorescence intensity (a.u.)
41 | GACATACCTGAGCACCATATATGGTAGCAACCAACCCTTTCGGAGTCACCTAGTGCAG | 25100 fluorescence intensity (a.u.)
42 | TGGGATCGCGGTGACGCCGCCGCCGCCGGTGGTAGCTCCTCGGAGTCACCTAGTGCAG | 3370 fluorescence intensity (a.u.)

— PMC7819943, “Rice protein-binding microarrays: a tool to detect cis-acting elements near promoter regions in rice”
